Here are results for one substance from publication PMC12627648.

Sequences of proteins named here, by UniProt entry; tags and fusion partners are left off. Residues count along the entry.
UniProt Q9NZC2, residues 19-230: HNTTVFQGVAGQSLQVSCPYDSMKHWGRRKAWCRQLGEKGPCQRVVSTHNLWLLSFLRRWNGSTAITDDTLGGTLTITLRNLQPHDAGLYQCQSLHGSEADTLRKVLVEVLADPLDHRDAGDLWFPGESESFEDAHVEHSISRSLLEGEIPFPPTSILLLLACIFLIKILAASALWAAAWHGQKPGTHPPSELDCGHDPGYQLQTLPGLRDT
UniProt P42224: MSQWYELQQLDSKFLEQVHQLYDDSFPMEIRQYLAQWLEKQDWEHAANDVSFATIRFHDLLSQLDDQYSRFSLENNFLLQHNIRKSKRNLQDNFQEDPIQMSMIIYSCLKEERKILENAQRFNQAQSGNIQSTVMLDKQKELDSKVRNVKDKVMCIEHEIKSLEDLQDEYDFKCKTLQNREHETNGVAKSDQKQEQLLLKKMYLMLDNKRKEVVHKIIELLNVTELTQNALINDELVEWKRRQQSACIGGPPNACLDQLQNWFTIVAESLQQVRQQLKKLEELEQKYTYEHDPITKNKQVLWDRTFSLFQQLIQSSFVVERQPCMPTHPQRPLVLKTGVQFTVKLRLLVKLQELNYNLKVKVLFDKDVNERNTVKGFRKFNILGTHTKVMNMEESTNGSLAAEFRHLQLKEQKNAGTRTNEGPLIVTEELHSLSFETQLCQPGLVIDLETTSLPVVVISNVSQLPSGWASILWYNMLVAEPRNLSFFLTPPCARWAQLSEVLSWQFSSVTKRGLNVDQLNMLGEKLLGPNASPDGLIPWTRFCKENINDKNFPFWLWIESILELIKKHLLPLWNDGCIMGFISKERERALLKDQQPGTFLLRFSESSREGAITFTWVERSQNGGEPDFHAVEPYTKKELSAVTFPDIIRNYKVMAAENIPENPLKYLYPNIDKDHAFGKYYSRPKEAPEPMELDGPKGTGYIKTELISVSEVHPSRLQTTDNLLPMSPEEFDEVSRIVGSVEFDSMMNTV

This assay has as its target triggering receptor expressed on myeloid cells 2 (TREM2), endogenous in TAMs (human (endogenous in THP-1-induced TAMs)) (UniProt Q9NZC2). Nature of the assay: affinity purification with mass spectrometry; anti-TREM2 antibody immunoprecipitates from TAMs, separated by SDS-PAGE, gel slices hydrolysed, Orbitrap Elite, search against UniProt.

No constants are given. Whether binding was seen depends on the method and setting. In cells and extracts the contact can be indirect. Here binding means that the protein was enriched with, or labelled near, the bait; the list need not be complete.

As for “signal transducer and activator of transcription 1 (STAT1), endogenous in TAMs (from UniProt P42224 1-750)”, the binding result was “binds”.
